Measured values reported in patent publication US20260265358A1.
Residue numbers refer to the chain shown, from its start. Results are given in words; binding and its absence hold for the method and conditions named. Some results given as binding are weak or reduced against the parent protein; the word gives no strength.

Protein sequences, listed by entry. Tags and fused reporters are not part of them. Residues count along the entry.
UniProt P09529, residues 293-407: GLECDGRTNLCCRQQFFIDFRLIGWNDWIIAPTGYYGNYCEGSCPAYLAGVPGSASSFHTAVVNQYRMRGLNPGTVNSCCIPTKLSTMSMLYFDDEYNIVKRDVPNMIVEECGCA

B1: anti-Activin A antibody Clone P (IgG) (antibody, V domains shown)
VH: QVQLVQSGAEVKKPGSSVKVSCKASGGTFDDYAISWVRQAPGQGLEWMGGIIPRFGIANYAQKFQGRVTITADESTSTAYMELSSLRSEDTAVYYCARPPSSGSDWGQGTLVTVSS
VL: DIQMTQSPSSVSASVGDRVTITCRASQGIDSWLAWYQQKPGKAPKLLIYAASSLQSGVPSRFSGSGSGTDFTLTISSLQPEDFATYYCQQVHSFPITFGGGTKVEIKR
B2: anti-Activin A antibody Clone F (IgG) (antibody, V domains shown)
VH: QVQLVQSGAEVKKPGASVKVSCKASGYTFTGYHIHWVRQVPGQGLEWMGVISAYSGDTNYAQKLQGRVTMTTDTSTSTAYMELRSLRSDDTAVYYCARARDIAALGLGAFDYWGQGTLVTVSS
VL: EIVLTQSPATLSVSPGERATLSCRASQSVSSNLAWYQQKPGQAPRLLIYGASDRATGIPARFSGSGSGTEFTLTISSLQSEDFAVYYCIQYSNYPRTFGGGTKVEIKR
B3: anti-Activin A antibody Clone L (IgG) (antibody, V domains shown)
VH: QVQLQESGPGLVKPSETLSLTCAVSGYSISSGYYWGWIRQPPGKGLEWIGSIYHSGSTYYNPSLKSRVTISVDTSKNQFSLKLSSVTAADTAVYYCAREAGSGYWYLSVYGMDVWGQGTTVTVSS
VL: B2 VL with D53T, I89Q, Y91S, S92D, N93D, Y94W, R96W

Assays:
Activin B [1] = target: Activin B (UniProt P09529); test: Octet BLI, IgG, avid; binder with a poor fit to a 1:1 model
Activin B [2] = target: Activin B (UniProt P09529); test: Octet BLI, IgG format

Row | Binder | binding (Activin B [1]) | binding (Activin B [2])
1 | B1 | binds | –
2 | B2 | – | binds
3 | B3 | – | binds
